{
  "sequences": {"note": "Amino acid sequences for entries named in this document (tags omitted). A change or cut given only in a name is not applied to a line headed by its entry.", "UniProt Q9Y490": "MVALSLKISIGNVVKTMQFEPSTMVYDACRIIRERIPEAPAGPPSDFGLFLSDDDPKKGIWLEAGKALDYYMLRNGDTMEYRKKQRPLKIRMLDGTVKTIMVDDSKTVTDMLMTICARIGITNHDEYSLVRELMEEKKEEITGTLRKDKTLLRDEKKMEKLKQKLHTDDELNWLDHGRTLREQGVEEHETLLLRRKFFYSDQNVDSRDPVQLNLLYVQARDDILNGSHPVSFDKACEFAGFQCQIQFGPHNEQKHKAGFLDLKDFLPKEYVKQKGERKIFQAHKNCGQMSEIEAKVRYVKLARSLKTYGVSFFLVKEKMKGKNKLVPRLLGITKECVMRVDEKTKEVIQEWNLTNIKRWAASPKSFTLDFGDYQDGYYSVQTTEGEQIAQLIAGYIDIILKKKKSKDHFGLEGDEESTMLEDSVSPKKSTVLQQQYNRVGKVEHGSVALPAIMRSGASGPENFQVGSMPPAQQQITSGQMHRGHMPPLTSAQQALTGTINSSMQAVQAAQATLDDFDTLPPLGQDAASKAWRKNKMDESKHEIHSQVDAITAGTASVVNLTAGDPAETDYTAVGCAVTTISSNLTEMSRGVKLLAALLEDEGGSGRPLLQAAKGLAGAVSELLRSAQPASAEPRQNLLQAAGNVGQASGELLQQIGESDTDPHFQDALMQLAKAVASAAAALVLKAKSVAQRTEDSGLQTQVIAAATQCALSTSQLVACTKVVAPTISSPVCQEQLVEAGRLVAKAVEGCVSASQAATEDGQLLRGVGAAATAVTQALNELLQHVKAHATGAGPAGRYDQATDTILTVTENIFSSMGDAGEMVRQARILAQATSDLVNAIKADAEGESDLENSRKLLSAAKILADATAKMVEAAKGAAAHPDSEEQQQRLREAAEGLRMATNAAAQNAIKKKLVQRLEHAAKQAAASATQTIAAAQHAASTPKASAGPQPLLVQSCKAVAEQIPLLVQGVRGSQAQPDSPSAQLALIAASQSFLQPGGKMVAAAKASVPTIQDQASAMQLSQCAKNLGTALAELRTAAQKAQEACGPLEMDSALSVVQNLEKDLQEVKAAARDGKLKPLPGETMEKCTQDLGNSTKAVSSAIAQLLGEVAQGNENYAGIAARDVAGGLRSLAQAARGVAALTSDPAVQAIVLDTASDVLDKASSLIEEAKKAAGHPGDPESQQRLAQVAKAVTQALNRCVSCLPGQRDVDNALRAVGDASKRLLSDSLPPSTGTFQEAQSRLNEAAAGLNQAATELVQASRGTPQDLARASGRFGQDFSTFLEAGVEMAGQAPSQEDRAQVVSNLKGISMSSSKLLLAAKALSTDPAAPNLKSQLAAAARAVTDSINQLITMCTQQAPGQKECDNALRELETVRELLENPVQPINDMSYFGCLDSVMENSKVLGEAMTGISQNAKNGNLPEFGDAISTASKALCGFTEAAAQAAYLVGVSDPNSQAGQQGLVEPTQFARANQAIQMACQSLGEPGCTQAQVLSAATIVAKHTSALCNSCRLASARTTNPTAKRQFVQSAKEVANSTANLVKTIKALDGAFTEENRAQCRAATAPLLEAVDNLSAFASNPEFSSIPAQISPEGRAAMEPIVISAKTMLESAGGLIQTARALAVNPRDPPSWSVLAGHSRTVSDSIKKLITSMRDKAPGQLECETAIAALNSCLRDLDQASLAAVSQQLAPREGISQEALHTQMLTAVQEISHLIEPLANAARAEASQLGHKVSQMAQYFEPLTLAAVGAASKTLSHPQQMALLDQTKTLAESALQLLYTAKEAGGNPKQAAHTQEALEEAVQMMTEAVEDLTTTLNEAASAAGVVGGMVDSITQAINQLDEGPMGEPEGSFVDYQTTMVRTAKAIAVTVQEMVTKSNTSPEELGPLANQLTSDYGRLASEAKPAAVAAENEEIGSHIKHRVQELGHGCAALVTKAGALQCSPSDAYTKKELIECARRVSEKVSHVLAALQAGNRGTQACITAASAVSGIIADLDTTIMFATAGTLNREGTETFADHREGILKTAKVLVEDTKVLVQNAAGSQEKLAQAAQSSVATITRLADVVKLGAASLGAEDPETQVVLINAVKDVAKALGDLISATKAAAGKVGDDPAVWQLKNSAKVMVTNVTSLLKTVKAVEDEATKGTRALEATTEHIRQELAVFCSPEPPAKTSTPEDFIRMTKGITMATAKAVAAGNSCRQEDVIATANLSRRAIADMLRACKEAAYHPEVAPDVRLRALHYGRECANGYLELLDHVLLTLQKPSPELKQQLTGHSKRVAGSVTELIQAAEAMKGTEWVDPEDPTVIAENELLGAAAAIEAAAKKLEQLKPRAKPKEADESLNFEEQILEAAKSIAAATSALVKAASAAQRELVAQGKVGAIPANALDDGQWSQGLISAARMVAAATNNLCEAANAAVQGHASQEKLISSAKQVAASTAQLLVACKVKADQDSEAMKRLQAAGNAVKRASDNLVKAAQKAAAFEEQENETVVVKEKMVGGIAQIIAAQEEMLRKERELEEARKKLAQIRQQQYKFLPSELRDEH", "UniProt P18010": "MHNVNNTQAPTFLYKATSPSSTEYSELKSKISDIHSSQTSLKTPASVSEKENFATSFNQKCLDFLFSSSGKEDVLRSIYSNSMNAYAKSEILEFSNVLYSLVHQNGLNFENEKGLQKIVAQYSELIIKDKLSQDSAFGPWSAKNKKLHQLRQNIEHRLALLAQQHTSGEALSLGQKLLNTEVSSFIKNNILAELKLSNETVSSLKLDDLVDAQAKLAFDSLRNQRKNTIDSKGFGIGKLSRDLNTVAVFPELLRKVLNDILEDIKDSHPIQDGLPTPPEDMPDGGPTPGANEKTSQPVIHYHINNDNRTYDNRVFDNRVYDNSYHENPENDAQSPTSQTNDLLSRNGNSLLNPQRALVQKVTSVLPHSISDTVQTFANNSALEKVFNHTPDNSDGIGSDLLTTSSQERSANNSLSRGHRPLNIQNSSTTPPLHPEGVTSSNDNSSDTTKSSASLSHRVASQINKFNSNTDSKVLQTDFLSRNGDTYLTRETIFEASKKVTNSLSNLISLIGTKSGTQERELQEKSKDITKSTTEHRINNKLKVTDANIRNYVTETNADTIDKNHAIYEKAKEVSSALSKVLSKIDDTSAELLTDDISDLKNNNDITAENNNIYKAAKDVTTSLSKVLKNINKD"},
  "source": "patent US20180264072A1",
  "molecular_target": "talin VBS1 (482-636), yeast two-hybrid prey region (human) (UniProt Q9Y490)",
  "test": "yeast two-hybrid screen, human placental cDNA library",
  "note": "These are yes or no findings as the source states them, for the method shown. Some results given as binding are weak or reduced against the parent protein; the word gives no strength.",
  "data": [
    {"substance": "IpaA(1-565) yeast two-hybrid bait (from UniProt P18010 1-565)", "values": [
      {"measurement": "binding", "value": "binds"}
    ]}
  ]
}
